# Measurements as given in PubChem BioAssay AID504444 (National Center for Advancing Translational Sciences (NCATS), 2011).
# Screen size: about 360,000 compounds; about 7,500 (2.1%) were called active. This list was built around the results that the source calls inconclusive (neither active nor inactive); the mix of calls is not that of the screen. The call rests on the fitted dose curve; in most records, active means well fitted inhibition curve with a large enough effect; inconclusive means small, poorly fitted or top-dose-only effect, or effect the other way; inactive means flat fitted curve, though single readings scatter. Potencies of inconclusive entries are doubtful fits and often do not repeat.
# Assay: Nrf2 qHTS screen for inhibitors; further: nearly all actives have a fitted effect of over 60% in size
# Details: A549 ARE-Fluc reporter, luciferase luminescence, 18-24 h; series mostly up to 46 µM
# In short: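 Reporter: ARE-Fluc in A549. Exposure: 18-24 h, 37 °C, 5% CO2, 5% FBS OPTI-MEM. Readouts: fluorescent cytotoxicity (CellTiter-Fluor), then luminescent Nrf2 signal after BugLite.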
# Potency means the concentration at half of the fitted maximal effect.
row,SMILES,Potency
1,Cc1ccc2c(c1)-c1onc(C(=O)N3CCN(c4cc(Cl)ccc4C)CC3)c1CO2,inactive
2,NC(=O)COc1ccc2cc(-c3ccc(F)cc3)c(=O)oc2c1,"inconclusive: 4.61 µM [activator, partial curve, poor fit]"
3,CC1Cc2ccccc2N1S(=O)(=O)c1nnc(NC(=O)c2cccc(F)c2)s1 (stereo unspecified),inactive
4,CC(/C=C1\SC(=S)N(NS(=O)(=O)c2ccc(C)cc2)C1=O)=C\c1ccccc1,inactive
5,O=C(Nc1ccc(Cl)cn1)c1cc2ccccc2o1,"inconclusive: 2.59 µM [activator, full curve, poor fit]"
6,O=C(N/N=C/c1ccc(-c2cccc(C(F)(F)F)c2)o1)c1ccccc1Br,"inconclusive: 29.1 µM [falling, single point]"
7,CCn1nnc2cc(C(=O)Nc3ccc(C)c(Cl)c3)ccc21,"inconclusive: 7.31 µM [activator, partial curve, poor fit]"
8,O=S(=O)(c1ccc2c(c1)OCCCO2)N1CCN(S(=O)(=O)c2c(F)cccc2F)CC1,inactive
9,CCCCNc1nc(CC)c2c(c1C#N)CCCC2,inactive
10,CCCCN1C(=O)c2ccccc2NC1c1ccc(OC)c(COc2ccc(NC(C)=O)cc2)c1 (stereo unspecified),"inconclusive: 20.6 µM [falling, partial curve, poor fit]"
11,COc1ccc(CCNC(=O)CN2c3cccc4cccc(c34)S2(=O)=O)cc1OC,inactive
12,CCCCn1cc(S(=O)(=O)c2ccc(C)c(C)c2)c(=O)c2cc(F)c(N(CC)CC)cc21,active: 25.9 µM
13,CCCCCCC(=O)N1C/C=C\C(c2ccc(OC)cc2)N(Cc2ccc(F)cc2)C(=O)C1Cc1ccccc1 (stereo unspecified),"inconclusive: 25.9 µM [falling, single point]"
14,CCn1c(=O)cc(SCC(=O)NCCCN2CCN(c3ccc(F)cc3)CC2)c2ccccc21,"inconclusive: 6.51 µM [activator, single point]"
15,CC1C(=O)N2CCCc3cc(NC(=O)C(=O)NCCCc4ccccc4)cc1c32 (stereo unspecified),"inconclusive: 14.6 µM [falling, partial curve, poor fit]"
16,COc1ccc(/C=C/C(=O)c2ccccc2O)cc1,"inconclusive: 29.1 µM [activator, partial curve, poor fit]"
17,O=C(CSc1nncn1-c1cccnc1)N(c1ccccc1)c1ccccc1,inactive
18,Cc1ccc(-c2nc3ccsc3c(=O)[nH]2)cc1,"inconclusive: 10.3 µM [activator, partial curve]"
19,CCn1c2ccccc2c2cc(NC(=S)N3CCOCC3)ccc21,"inconclusive: 23.1 µM [falling, single point]"
20,COc1ccc2[nH]cc(CCNC(=O)c3cnn(-c4ccc(C)cc4)c3C3CCN(C(=O)OC(C)(C)C)CC3)c2c1,active: 14.6 µM
21,O=C(COC(=O)c1ccccc1Sc1ccc(C(F)(F)F)cc1[N+](=O)[O-])NC(=O)NC1CCCC1,"inconclusive: 13 µM [falling, partial curve, poor fit]"

# As entered above.
# CCCCNc1nc(CC)c2c(c1C#N)CCCC2 | Potency: inactive
# O=C(N/N=C/c1ccc(-c2cccc(C(F)(F)F)c2)o1)c1ccccc1Br | Potency: inconclusive: 29.1 µM [falling, single point]

# More compounds follow:

row,SMILES,Potency
1,CCCCn1c(SCC(=O)Nc2cc(C)on2)nc2cc(S(N)(=O)=O)ccc21,"inconclusive: 0.116 µM [falling, full curve, poor fit]"
2,Cc1ccc(S(=O)(=O)NNc2nc3ccccc3nc2C(F)(F)F)cc1,"inconclusive: 18.4 µM [falling, single point]"
3,N/C(=N\OC(=O)CCC1CCCCC1)c1ccccn1,"inconclusive: 2.31 µM [activator, full curve]"
4,CC(C)N(Cc1ccccc1)C(=O)C1CCCN(c2ncnc3onc(-c4ccc(F)cc4)c23)C1 (stereo unspecified),"inconclusive: 29.1 µM [falling, single point]"
5,O=C(O)C1=C(C(=O)O)C2C=CC1C2,inactive
6,COc1ccc(-c2ccccc2C2C3C=CCCC3(C)C(=O)N2Cc2ccccc2)cc1 (stereo unspecified),"inconclusive: 29.1 µM [falling, single point]"
7,COc1cccc2sc(NNC(=O)c3nc4ccccc4s3)nc12,"inconclusive: 29.1 µM [falling, single point]"
8,COc1ccc(OC)c(CCNC(=O)c2cnn(-c3ccc(C)cc3C)c2C2CCN(C(=O)OC(C)(C)C)CC2)c1,active: 18.4 µM
9,CCOC(=O)c1c(NC(=O)COc2ccc(C)cc2C(C)(C)C)sc2c1CCC(C)C2 (stereo unspecified),inactive
10,COc1cccc2cc(C(C)N(CCCN3CCOCC3)C(=S)Nc3cccc(C)c3)oc12 (stereo unspecified),"inconclusive: 6.51 µM [activator, partial curve]"
11,O=C(Nc1ccc(Oc2cccc(C(F)(F)F)c2)nc1)c1ccco1,"inconclusive: 16.4 µM [falling, partial curve, poor fit]"
12,COc1ccc(N2CCN(C(=O)c3ccc(CNS(=O)(=O)c4cc(C)ccc4C)cc3)CC2)cc1,"inconclusive: 29.1 µM [falling, single point]"
13,Cc1cc(NC(=O)C2Oc3ccccc3OC2C)no1 (stereo unspecified),"inconclusive: 0.103 µM [activator, full curve, poor fit]"
14,Cc1ccc(-n2c(=O)c3sccc3n(CC(=O)NC3CCCC3)c2=O)cc1,"inconclusive: 25.9 µM [activator, single point]"
15,COc1ccnc(Oc2cccc(C(F)(F)F)c2)c1C(=O)N/C=N/OCc1ccccc1F,active: 20.6 µM
16,CC1Sc2ccc(C(=O)Nc3ccc(S(=O)(=O)N(C)C)cc3)cc2NC1=O (stereo unspecified),"inconclusive: 20.6 µM [falling, single point]"
17,Cc1ccc(-c2nnc(Nc3ccc(F)cc3)c3ccccc23)cc1S(=O)(=O)N1CCN(C)CC1,"inconclusive: 23.1 µM [falling, single point]"
18,Cc1ccc(CNCc2cccn2-c2nnc(N3CCCC3)s2)cc1,"inconclusive: 4.11 µM [activator, full curve, poor fit]"
19,CC(=O)Nc1ccc(N2C(=O)CC(Sc3nccc(C)n3)C2=O)cc1 (stereo unspecified),"inconclusive: 0.651 µM [falling, full curve, poor fit]"
20,CCCN(C(=O)COC(=O)CC1CCCCC1)c1c(N)n(Cc2ccccc2)c(=O)[nH]c1=O,"inconclusive: 25.9 µM [falling, single point]"
